Values of other authors in patent publication US9422226B2 (Biogen MA Inc., priority 2011, dated 2016).
Structures can show the parent of a compound that is named as a salt. At least one structure is not confirmed: it was looked up by name or label, or the drawing left a doubt.

Conditions: cited from earlier work

In the case of `COS(=O)(=O)O` [MMS, monomethyl sulfate], the genotoxicity is given as “not genotoxic”.
